Experimental data: patent US11041000B2, “Peptide inhibitors of interleukin-23 receptor and their use to treat inflammatory diseases” (priority 2019, dated 2021)
Not every detail of the peptide structures is certain; ends, links or a residue may be inferred.

The chains behind the UniProt entries cited, without tags or fusion partners. Residues count along the entry.
UniProt Q5VWK5, 24-629 limits assumed: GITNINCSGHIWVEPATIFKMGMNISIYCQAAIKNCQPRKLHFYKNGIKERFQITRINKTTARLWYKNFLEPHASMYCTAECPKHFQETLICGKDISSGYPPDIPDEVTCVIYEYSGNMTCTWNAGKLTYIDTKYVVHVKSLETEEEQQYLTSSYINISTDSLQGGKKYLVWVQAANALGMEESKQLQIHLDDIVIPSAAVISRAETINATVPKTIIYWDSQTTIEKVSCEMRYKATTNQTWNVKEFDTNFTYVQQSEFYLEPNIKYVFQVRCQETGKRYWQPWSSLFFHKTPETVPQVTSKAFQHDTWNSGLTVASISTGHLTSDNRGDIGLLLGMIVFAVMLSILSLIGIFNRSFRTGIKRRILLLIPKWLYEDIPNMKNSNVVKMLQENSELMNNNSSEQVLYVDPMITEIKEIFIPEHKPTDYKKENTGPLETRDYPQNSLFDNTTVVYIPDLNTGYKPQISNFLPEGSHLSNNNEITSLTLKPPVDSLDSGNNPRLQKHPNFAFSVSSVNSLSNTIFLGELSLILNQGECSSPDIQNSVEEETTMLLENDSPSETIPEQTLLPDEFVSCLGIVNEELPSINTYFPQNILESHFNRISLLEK

Tests used:
[1] = target: IL-23R-expressing DB cells (Homo sapiens, UniProt Q5VWK5); assay: DB cells IL23R pSTAT3 cell assay (pStat3HTRF); format: cell-based; conditions: DB cells stimulated with IL-23 0.5 nM, 30 minutes, phospho-STAT3 in cell lysates; read-out: pStat3 HTRF
Excerpt: Human ELISA indicates the IL23-IL23R competitive binding assay described below, Rat ELISA indicates the rat IL-23R competitive binding ELISA assay described below, and pStat3HTRF indicates the DB cells IL-23R pSTAT3 cell assay described below. The peptides depicted in Table E1 are cyclized via a disulfide bridge formed between two Pen residues in these peptides. The peptides depicted in Table E2 are cyclized via a thioether bond between the indicated amino acid residues. Table E2 provides an illustrative structure depicting thioether cyclization, which is indicated in the table by the term “cyclo,” with the cyclic region bracketed immediately following the term “cyclo.” For certain peptides, the residue Abu is present where indicated, whereas in other embodiments, e.g., those related to the non-cyclized form, the Abu may be referred to as a hSer(Cl) or homoSer residue. The petpides depicted in Table E3 are cyclized via a disulfide bridge formed between two Pen residues or a thioether bond between Abu and Cys.
IL-23 plays a central role in supporting and maintaining Th17 differentiation in vivo. […] Changes in phospho-STAT3 levels in the cell lysates were detected using the Cisbio HTRF pSTAT3 (Tyr705) Cellular Assay Kit (Cisbio #62AT3PEH), according to manufacturer's Two Plate Assay protocol.

[2] = test system: Natural killer (NK) cells; assay: NK cell based assay (IL-23-induced IFNγ); conditions: primary human NK cells, IL-23 plus IL-18 10 ng/mL, IFNγ in supernatant after 20 to 24 hours
Protocol: Natural killer (NK) cells, purified from human peripheral blood of healthy donors by negative selection (Miltenyi Biotech, Cat #130-092-657), were cultured in complete media (RPMI 1640 containing 10% FBS, L-glutamine and penicillin-streptomycin) in the presence of IL-2 (RnD, Cat #202-IL-010/CF) at 25 ng/mL. After 7 days, cells were centrifuged, and resuspended in complete media at 1E6 cells/mL. […] After 20 to 24 hours, IFNγ in the supernatant was quantified using Quantikine ELISA (RnD, Cat #DIF50).

Stability in rat plasma = format: in vitro ADME; conditions: SD rat plasma, 37° C., 20 μM

**Q.** What does the source list for CC(=O)NCCCC[C@H](NC(=O)[C@](C)(CC(C)C)NC(=O)[C@H](Cc1ccc2ccccc2c1)NC(=O)[C@H](Cc1ccc(OCCN)cc1)NC(=O)[C@H]1NC(=O)[C@H](CCC(N)=O)NC(=O)[C@H](Cc2c[nH]c3c(C)cccc23)NC(=O)[C@H]([C@@H](C)O)NC(=O)[C@H](CC(N)=O)NC(=O)[C@@H](NC(C)=O)C(C)(C)SSC1(C)C)C(=O)N[C@H](Cc1c[nH]cn1)C(=O)NCCC(N)=O [compound 215]?
**A.** IC50 [1]: 4.94 nM; IC50 [2]: 20 nM; t½: Rat Plasma EDTA (Stability in rat plasma): 2 h
